From patent US20190361013A1 come the findings set out here.

The target in assay [1] is His-AcH3. Briefly: summary of the ELISA binding curves. For orientation: In an ELISA, binding on a coated surface is turned into a signal by an enzyme label.
Assay [2] concerns the target His-AcH3. Briefly: direct ELISA binding curve, antigen coated at 10 uM.
The target of assay [3] is His-AcH3. Briefly: co-immunoprecipitation on anti-HA agarose, Western blot. On the technique in general: In western blotting, separated proteins are transferred to a membrane and probed.
In assay [4] the target is His-AcH3. Briefly: ELISA dilution binding curve, antigen coated on solid phase.
Assay [5] deals with His-AcH3. Briefly: co-immunoprecipitation on anti-HA agarose, anti-His Western blot.
The target of assay [6] is His-H3. Described as above.

These are yes or no findings as the source states them, for the method shown. For part of these data: Binding can be weak; no strength is given. Where a sequence is shown, tags or fusion partners need not be part of it. For part of these data: In cells and extracts the contact can be indirect.

B1: ScFv-58F-HA (scFv, not shown: small tags and cut ends)
scFv: DILMTQSPAIMSASPGEKVTMTCRASSSVSSSYLHWYQQKSGASPKLWIYSTSNLASGVPARFSGSGSGTSYSLTISSVEAEDAATYYCQQYSGYPWTSGGGTKLEIKRSGGSTSGSGKPGSGEGSSSTEVKVEESGGGLVQPGGSMKLSCVASGFTFSNYWMNWVRQSPEKGLEWVAEIRLKSNNYATHYAESVKGRFTISRDDSESSVYLQMNNLRAEDTGIYYCTRRNGPSSRAMDYWGQGTTVTVSS
Regarding B1, the binding result in assay [1] is given as “binds”; in assay [2], “binds”; in assay [3], “binds”; in assay [4] it was “binds”; in assay [5], “binds”; in assay [6], “no binding (tested: 2 ug of antigen)”.
